# PubChem BioAssay AID652272 | Drosophila RNAi Screening Center | 2013
# Purpose: 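Genes whose knock-down decreases or increases Hedgehog reporter output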 (primary screen)
# Cell system: Drosophila clone 8 (Cl8) cells
# Reagent: long dsRNA against Drosophila genes
# Measurement: 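Plate reader light from a firefly reporter under a ptc promoter fragment that responds to Hedgehog, with Renilla light as transfection reference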
# Direction: firefly Hh reporter signal: higher = more ptc reporter light; Renilla reference signal: higher = more Renilla control light
# Active means: 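Called a hit if the two-replicate mean z-score lies below -2 or above +3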
# Calls: active = hit: reporter lowered or raised; inactive = not a hit
# In all, the deposit lists about 21,000 reagents; shown is an unselected part of those that have a named target and a result. In the full data, 503 (2.4%) were called active. 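Raw plate light values, not normalised; calls rest on replicate z-scores that were not deposited; hits include reporter decreases as well as increases.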 Unmarked entries are inactive. Names joined by + are all predicted targets of the reagent. No sequences are given here. The record does not give: the amount of reagent, the time to read-out.
gene,DRSC id,"firefly Hh reporter signal, replicate 1","firefly Hh reporter signal, replicate 2","firefly Hh reporter signal, replicate 3","Renilla reference signal, replicate 1","Renilla reference signal, replicate 2"
Nulp1 (Nuclear localized protein 1),DRSC09677,1.27e5,83559,,4704,3008
CG15370,DRSC18042,87706,50578,,5104,1660
nolo (no long nerve cord),DRSC03705,80794,55804,,3165,2213
nolo (no long nerve cord),DRSC03719,87216,47164,,2353,4820
nolo (no long nerve cord),DRSC03720,91424,1.09e5,,2496,6834
CG14736,DRSC14956,88176,1.70e5,,2080,4690
CG2260,DRSC18223,1.13e5,78701,,2601,1909
Lcp65Af,DRSC11213,74576,61813,,8230,4608
CG17841,DRSC17737,89429,54037,,2412,1529
nxf2 (nuclear RNA export factor 2),DRSC10403,72401,62450,,3303,2304
fws (four way stop),DRSC02969,77303,32269,,2512,1124
CG42827,DRSC16116,5.70e5,4.82e5,96724,29062,2528
CG34051,DRSC01739,5.99e5,2.59e5,1.14e5,4608,6118
Rsph3 (Radial spoke head protein 3),DRSC09696,1.40e5,1.14e5,,5888,4428
Rsph3 (Radial spoke head protein 3),DRSC10211,65659,69853,,7757,5043
Best1 (Bestrophin 1),DRSC16909,1.04e5,2.01e5,,3084,6147
Polr2A (RNA polymerase II subunit A),DRSC20280,1.22e5,63202,,2128,1495
Alp7 (Alkaline phosphatase 7),DRSC04355,94535,49296,,1947,3016
Drep4 (DNA fragmentation factor-related protein 4),DRSC03408,1.18e5,59259,,2759,6124
AttA (Attacin-A),DRSC05926,1.16e5,67062,,3287,2759
CG5550,DRSC06943,63890,39386,,1015,2633
sima (similar),DRSC17055,68115,48075,,1992,1116
Pif1 (Pif1 DNA helicase),DRSC00582,80624,65184,,4691,3026
CG14545,DRSC14889,5.73e5,1.30e5,,29597,3245
CG1575,DRSC18069,89389,75204,,2528,1873
Fbxl4 (F box and leucine-rich-repeat gene 4),DRSC19805,1.41e5,68135,,3094,1922
mRpL18 (mitochondrial ribosomal protein L18),DRSC06142,95741,64608,,1472,4813
ClpX (Caseinolytic protease chaperone subunit),DRSC15592,74764,87094,,3456,3314
CalpC (Calpain C),DRSC19873,66764,1.80e5,,2609,7290
Npl4 (Nuclear protein localization 4),DRSC15615,72266,57146,,2043,2272
Npl4 (Nuclear protein localization 4),DRSC15616,4.24e5,99491,,24849,3250

Reformatted: results already given.
gene	DRSC id	firefly Hh reporter signal, replicate 1	firefly Hh reporter signal, replicate 2	firefly Hh reporter signal, replicate 3	Renilla reference signal, replicate 1	Renilla reference signal, replicate 2
Rsph3 (Radial spoke head protein 3)	DRSC10211	65659	69853		7757	5043
Best1 (Bestrophin 1)	DRSC16909	1.04e5	2.01e5		3084	6147
Polr2A (RNA polymerase II subunit A)	DRSC20280	1.22e5	63202		2128	1495

Additional entries follow:
gene,DRSC id,"firefly Hh reporter signal, replicate 1","firefly Hh reporter signal, replicate 2","firefly Hh reporter signal, replicate 3","Renilla reference signal, replicate 1","Renilla reference signal, replicate 2"
CG14683,DRSC17035,1.11e5,80563,,4516,2741
CG6607,DRSC16073,5.83e5,1.14e5,,31467,3762
CG34266,DRSC08323,44356,43339,,2883,3335
CG33673,DRSC00084,6.66e5,3.05e5,,33298,12419
CG10898,DRSC14279,1.33e5,1.04e5,,4880,3773
CG4743,DRSC15636,4.83e5,1.03e5,,24553,3169
BCL7-like,DRSC17729,1.07e5,90533,,2695,2336
corto,DRSC12040,2.23e5,,,3477,
corto,DRSC12375,1.55e5,1.37e5,,3521,2807
ftz-f1 (ftz transcription factor 1),DRSC11347,1.26e5,,,1548,2173
CG9517 (retired record),DRSC20192,1.02e5,2.29e5,,3067,10348
CG9517 (retired record),DRSC20193,70706,1.43e5,,1968,6193
CG44836,DRSC09915,79019,,,4359,2344
Gr10a (Gustatory receptor 10a),DRSC18897,8.78e5,3.22e5,,44484,4220
Ldh (Lactate dehydrogenase),DRSC11198,40129,63845,,4458,4986
CG4615,DRSC17491,3.86e5,1.62e5,,16704,2547
CG4615,DRSC18376,55561,47072,,1832,1485
Dip-B (Dipeptidase B),DRSC16466,1.02e5,78048,,4173,3090
PGRP-LE (Peptidoglycan recognition protein LE),DRSC20137,1.10e5,1.02e5,,2573,2508
Sema5c (Semaphorin 5c),DRSC11279,40722,49288,36816,5671,3280
CG8191 + CG12379,DRSC19451,92057,1.77e5,,2345,6801
CG13511,DRSC04153,95453,65009,,2656,5872
Lrt (Leucine-rich tendon-specific protein),DRSC06045,1.53e5,93865,,5030,5552
nompA (no mechanoreceptor potential A),DRSC06329,1.07e5,55235,,2948,4257
Paip2 (polyA-binding protein interacting protein 2),DRSC14504,1.54e5,1.15e5,,6043,4459
CR44003 + CG44002,DRSC00523,74080,64336,,3456,3139
CR44003 + CG44002,DRSC00606,1.02e5,52616,,2619,5146
